Measured values published in patent publication US20180037898A1.
Results are given in words; binding and its absence hold for the method and conditions named. Some binding calls cover weakened binding; strength is not graded here.

Sequences of proteins named here, by UniProt entry; tags and fusion partners are left off. Residues count along the entry.
UniProt Q08722, residues 19-135: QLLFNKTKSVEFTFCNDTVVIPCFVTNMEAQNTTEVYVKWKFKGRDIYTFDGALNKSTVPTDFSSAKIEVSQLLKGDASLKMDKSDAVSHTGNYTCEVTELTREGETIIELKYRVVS

What was measured:
Assay in all cases: flow cytometry of BJ5465 yeast displaying CV1, Alexa647 detection
[1] = target: CV1 surface accessible fusion protein with 41 amino acid stalk (S41), displayed on BJ5465 yeast
[2] = target: CV1 surface accessible fusion protein with 232 amino acid stalk (S232), displayed on BJ5465 yeast
[3] = target: CV1 surface accessible fusion protein with 465 amino acid stalk (S465), displayed on BJ5465 yeast
[4] = target: CV1 surface accessible fusion protein with 19 amino acid stalk (S19), displayed on BJ5465 yeast

Measured: binding

CD47-biotin monomers (~15 kDa) (from UniProt Q08722 19-135) (ligand)
binds: [1] | [2] | [3] | [4]
